Experimental data as given in patent CN105461808A.
These are yes or no findings as the source states them, for the method shown. Some entries that bind do so weakly or less than the wild type.

Chains of the proteins cited; added tags and fusions are not shown. Residues count along the entry.
UniProt Q9NZQ7, residues 19-290: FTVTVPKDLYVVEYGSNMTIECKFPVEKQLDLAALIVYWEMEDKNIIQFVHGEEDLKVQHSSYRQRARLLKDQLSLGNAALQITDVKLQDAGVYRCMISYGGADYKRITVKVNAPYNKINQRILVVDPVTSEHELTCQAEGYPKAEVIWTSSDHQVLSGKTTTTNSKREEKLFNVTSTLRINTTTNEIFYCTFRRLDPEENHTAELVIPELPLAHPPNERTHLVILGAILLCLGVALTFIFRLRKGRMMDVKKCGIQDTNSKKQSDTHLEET

B1: H018-17B5.5.1 (antibody, mouse IgG1, V domains shown)
VH: QVQLQQSGAELMKPGASVKISCKATGYKFSSYWIEWVKQRPGHGLEWIGEILPGSGNPNYDEKFKGKATFTADTSSNTAYMQLSSLTSEDSAVYYCARERWMDSWGQGTSVTVSS
VL: DIQMTQTASSLSASLGDRVTISCSASQGIFNYLNWYQQKPDGTVTVLIYYTSRLHSGVPSRFSGSGSGTDYSLTISNLEPEDIATYYCQQYSKLPYTFGGGTKLEIKR
B2: H017-6F11.3.2 (antibody, mouse IgG2b, V domains shown)
VH: EVQLQQSGAELVKPGASVKLSCTASGFNIKDTYIHWMRQRPEQGLEWIGRIDPANDNTKYDPKFQGKATVTADTSSNTAYLQLSSLTSEDTAVYYCARGLRLRYFDVWGAGTTVTVSS
VL: DIQMTQTPSSLSASLGGKVTITCKASQDIHKYIAWYQHKPGKGPRLLIHYTSTLQPGIPSRFSGSGSGRDFSFSISNLEPEDFETYYCLQYENLLPTFGGGTKLEIK
B3: H017-9C10.2.8 (antibody, mouse IgG1, V domains shown)
VH: QVQLKQSGFGLVLPSQSLSITCTVSGFSLTSYGVHWVRQSPGKGLEWLGLIWSGGGTDYNAAFISRLSISKDNSKSQVFFKINSLQANDTAIYYCARQLGLRAMDYWGQGTSVTVSS
VL: DILLTQSPAILSVSPGERVSFSCRASQSIGTTIHWYQQRTNGSPRLLIKYASESVSGIPSRFSGSGSGTDFTLSINSVESEDIADYYCQQSNSWPLTFGAGTKLEIK

These binders were tested against HCC827细胞表面PDL-1 (UniProt Q9NZQ7) (assay: flow cytometry on cells (legend of Fig. 8)).

binding, binds:
B1
B2
B3

Each binder was assayed against HCC827细胞表面PDL-1 (UniProt Q9NZQ7) (assay: flow cytometry on cells).

binding, binds:
B1
B2
B3
